Our source for the binding values is publication PMC4200232.

The chains behind the UniProt entries cited, without tags or fusion partners. Residues count along the entry.
UniProt P21926: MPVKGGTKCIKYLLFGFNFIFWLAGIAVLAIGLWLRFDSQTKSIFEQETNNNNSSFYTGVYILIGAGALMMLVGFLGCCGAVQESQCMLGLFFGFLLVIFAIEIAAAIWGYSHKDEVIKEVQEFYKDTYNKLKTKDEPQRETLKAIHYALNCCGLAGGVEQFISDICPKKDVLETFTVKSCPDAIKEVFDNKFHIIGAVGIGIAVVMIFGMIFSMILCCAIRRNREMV
UniProt Q9H5V8, residues 30-836: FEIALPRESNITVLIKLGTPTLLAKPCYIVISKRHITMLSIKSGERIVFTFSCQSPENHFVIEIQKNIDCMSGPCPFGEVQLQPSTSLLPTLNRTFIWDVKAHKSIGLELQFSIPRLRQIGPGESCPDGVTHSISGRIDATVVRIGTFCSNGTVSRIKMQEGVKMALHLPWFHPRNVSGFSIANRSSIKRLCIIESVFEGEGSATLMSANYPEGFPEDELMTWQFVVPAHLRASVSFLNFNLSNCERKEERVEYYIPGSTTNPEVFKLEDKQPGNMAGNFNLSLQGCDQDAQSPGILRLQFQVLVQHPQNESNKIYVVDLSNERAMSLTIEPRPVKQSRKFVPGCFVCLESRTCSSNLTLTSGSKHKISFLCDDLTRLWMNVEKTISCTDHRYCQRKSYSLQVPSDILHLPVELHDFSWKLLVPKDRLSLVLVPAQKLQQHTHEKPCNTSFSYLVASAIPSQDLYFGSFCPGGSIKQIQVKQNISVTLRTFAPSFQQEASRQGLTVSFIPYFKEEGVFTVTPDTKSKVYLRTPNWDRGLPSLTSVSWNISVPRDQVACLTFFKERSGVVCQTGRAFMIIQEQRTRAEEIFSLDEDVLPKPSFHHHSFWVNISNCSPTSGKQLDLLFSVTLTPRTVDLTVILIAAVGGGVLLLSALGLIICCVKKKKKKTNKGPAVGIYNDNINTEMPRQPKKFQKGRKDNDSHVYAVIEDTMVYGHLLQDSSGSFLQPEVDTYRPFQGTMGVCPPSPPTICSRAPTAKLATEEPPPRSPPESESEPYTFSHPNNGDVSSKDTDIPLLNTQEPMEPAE

The target of this assay is tetraspanin CD9 (human (endogenous in SW480 and HT-29)) (UniProt P21926). The assay is described as follows: co-IP; SW480 cells lysed in 1% (w/v) Brij97, 10 mM Tris-HCl pH 7.4, 150 mM NaCl, 1 mM CaCl2, 1 mM MgCl2; 500 ug lysate protein; CD9 precipitated with 5 ug mouse anti-CD9 clone ALB6 and protein G beads overnight at 4°C; Western blot for CDCP1, EpCAM and CD9; isotype-matched IgG and beads alone as controls.

These are yes or no findings as the source states them, for the method shown. In cells and extracts the contact can be indirect. Some results given as binding are weak or reduced against the parent protein; the word gives no strength.

In the case of “CUB domain-containing protein-1 (CDCP1) (from UniProt Q9H5V8 30-836)”, the binding result is on record as “binds”.

B1: Epithelial cell adhesion molecule (EpCAM) (protein, UniProt P16422 24-314)
chain: QEECVCENYKLAVNCFVNNNRQCQCTSVGAQNTVICSKLAAKCLVMKAEMNGSKLGRRAKPEGALQNNDGLYDPDCDESGLFKAKQCNGTSMCWCVNTAGVRRTDKDTEITCSERVRTYWIIIELKHKAREKPYDSKSLRTALQKEITTRYQLDPKFITSILYENNVITIDLVQNSSQKTQNDVDIADVAYYFEKDVKGESLFHSKKMDLTVNGEQLDLDPGQTLIYYVDEKAPEFSMQGLKAGVIAVIVVVVIAVVAGIVVLVISRKKRMAKYEKAEIKEMGEMHRELNA
As for B1, the binding entry is listed as “binds”.
